Measurements taken from PMC5700102, “Primer synthesis by a eukaryotic-like archaeal primase is independent of its Fe-S cluster” (Nature Communications, 2017).

How the values were obtained:
[1] = molecular target: T1, PriS E34C (S. solfataricus) (UniProt Q97Z83); assay: cross-linking; BMOE cross-linking of 5 μM purified cysteine double mutant primase (PriSLX or Chimera), 25 °C, 1 h, 25 mM Hepes pH 7.2, 150 mM NaCl, 5 mM MnCl2; SDS-PAGE, Coomassie; also with RNA/DNA or 5'-pppRNA/DNA (less cross-linked product with 5'-pppRNA/DNA); both purified
T1 sequence: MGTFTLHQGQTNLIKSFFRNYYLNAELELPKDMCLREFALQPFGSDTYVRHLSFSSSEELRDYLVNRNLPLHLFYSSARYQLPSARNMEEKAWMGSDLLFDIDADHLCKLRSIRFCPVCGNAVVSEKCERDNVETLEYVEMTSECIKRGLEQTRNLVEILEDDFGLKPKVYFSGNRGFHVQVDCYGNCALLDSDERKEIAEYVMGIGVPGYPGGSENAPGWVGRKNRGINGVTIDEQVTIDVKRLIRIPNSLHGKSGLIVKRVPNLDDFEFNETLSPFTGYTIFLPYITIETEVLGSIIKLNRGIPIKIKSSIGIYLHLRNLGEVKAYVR

[2] = molecular target: T2, PriL, regulatory subunit of the heterotrimeric primase PriSLX from S. solfataricus (S. solfataricus) (UniProt Q9UWW1); assay: crystal structure; PriSLX heterotrimer, 2.9 Å; crystallised with 1 mM MnCl2, 2 mM AMPCPP and an RNA-DNA hybrid (not seen in the map); two heterotrimers in the asymmetric unit; both purified
T2 sequence: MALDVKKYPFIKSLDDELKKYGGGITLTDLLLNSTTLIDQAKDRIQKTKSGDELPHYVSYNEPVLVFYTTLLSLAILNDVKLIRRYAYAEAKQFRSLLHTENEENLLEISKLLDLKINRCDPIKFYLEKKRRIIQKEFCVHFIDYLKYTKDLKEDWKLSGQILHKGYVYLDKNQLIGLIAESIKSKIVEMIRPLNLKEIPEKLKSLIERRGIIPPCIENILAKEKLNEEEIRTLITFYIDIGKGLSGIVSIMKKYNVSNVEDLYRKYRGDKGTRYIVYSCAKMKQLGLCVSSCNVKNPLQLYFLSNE

PriX K110C (S. solfataricus)
binding [1]: binds

PriX, third subunit of the heterotrimeric primase PriSLX from S. solfataricus
binding [2]: binds

These are yes or no findings as the source states them, for the method shown. Binding can be weak; no strength is given.
